The text below walks through data of PubChem BioAssay (NCATS).

Assay [1] is described as follows: Validation of Assay for Modulators of Lamin A Splicing (AID 1459). The settings on record: Lamin A splicing dual RFP/GFP fluorescence reporter, ratio; measured here: GFP channel. Summed up:
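S3 HeLa stably expressing lamin A-EGFP splicing minigene and DsRed2, 600 cells/well in Opti-MEM with 2% FBS, treated 48 h at 37C; laser-scanning cytometry gives GFP/RFP total intensity ratio; ancitabine positive control, 0.5% DMSO vehicle.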

Assay [2] in a line: qHTS Assay for Modulators of Human Peripheral Myelin Protein 22 (PMP22) Expression/Activity (AID 1967). The note with it: Cell-based PMP22 reporter, dual-color luciferase ratio. The gist of the method: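 Mouse MSC80 Schwann cells carrying Pmp22 promoter–green click beetle luciferase plus EF-alpha–red luciferase control, dosed 24 h at 37 °C. Dual-filter luminescence, overlap-corrected; %Activity from green/red ratio normalised to untreated cells, concentration-response curves fitted.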

Assay [3] can be described thus: qHTS Validation Assay to Find Inhibitors of Chronic Active B-Cell Receptor Signaling (AID 485345). The note with it: ABC-DLBCL cells, chronic BCR signaling reporter; measured here: CBR control luciferase (viability counter). Summed up:
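Read-out: ratio of filter-corrected green (IkappaBalpha fusion) to red (native) luciferase signal in doxycycline-induced TMD8 cells after 4 h at 37C. Titration spanned 46 uM–3 nM; Data were normalised to basal cells and 10 uM MG-132 wells.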
A general note: Quantitative high-throughput screening tests each substance at several concentrations.

Assay [4] in a line: Nrf2 qHTS screen for inhibitors: Validation (AID 493153). The settings on record: A549 ARE-Fluc reporter, 18-24 h; AC50: CellTiter-Fluor fluorescence read, measured here: cytotoxicity CellTiter-Fluor AC50; viability change: measured here: cytotoxicity max response. The gist of the method:
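A549 cells carrying ARE-firefly luciferase reporter, 5000 cells/well in 5% FBS OPTI-MEM, treated with compound over a concentration series for 18-24 h at 37 C. Luciferase luminescence gave Nrf2 activity; CellTiter-Fluor fluorescence gave viability.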

Assay [5] in a line: qHTS Assay for Lipid Storage Modulators (AID 1519). The note with it: Drosophila S3 cells, BODIPY lipid droplet/cell ratio, laser cytometry, cells loaded with oleic acid; for AC50: measured here: lipid (BODIPY) channel AC50. The gist of the method: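 Cells seeded at 5,000 per well were treated with compounds over a concentration series and loaded with oleic acid (400 uM, as added). Lipid droplet fluorescence (488 nm excitation, 500-530 nm channel) was read by laser-scanning cytometry and normalized to 20 uM Triacsin C.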

The mark [6] stands for this setting: measured here: green reporter channel AC50, mouse Pmp22 promoter in mouse Schwann cells.
Setting [7] is: measured here: red reporter channel AC50, EF-alpha promoter control reporter in MSC80 mouse Schwann cells.
Where [8] appears, read: measured here: cell count channel max response.
[9] abbreviates: measured here: lipid channel max response.

Where “and” joins values, the source holds several entries; their conditions need not be identical. Identical values can stand only once. Some of the results follow. These are further read-outs of the screen, such as a control signal, another cell line or another target. No call is given for them. The list favours compounds with an active or inconclusive main result. For part of these data: The note in brackets gives the kind of curve behind each potency; many fits are weak.

As for `O=[N+]([O-])c1ccc2nc(N3CCNCC3)ccc2c1`, the AC50 (commonly the concentration giving half of the maximal activity seen) is 15.8 µM [falling, single point] in assay [1]; 67.5 µM [falling, partial curve, poor fit] in assay [2] (setting [6]); 75.7 µM [falling, partial curve, poor fit] in assay [2] (setting [7]); 18.4 µM [rising, single point] in assay [3]. Further, in assay [4], the viability change was -8.71%.
In the case of `COc1cc2c(cc1OC)[C@@H]1C(=O)c3ccc4oc(C(C)C)cc4c3OC1CO2` (stereo partly drawn), the AC50 in assay [5] was 2.24 µM [falling, full curve].
`O=C(OC1CCN(CCCl)CC1)C(c1ccccc1)c1ccccc1`: the AC50 in assay [1] was 12.6 µM [falling, partial curve, poor fit]; in assay [2] (setting [6]), 67.5 µM [falling, partial curve]; in assay [2] (setting [7]) it was 67.5 µM [falling, partial curve].
`C/C(=C\[C@@H](N)C(=O)O)CP(=O)(O)O`: the values for the max response in assay [5] (setting [8]) and in assay [5] (setting [9]) were 1.74% and 5.68%, respectively.
Consider `C[C@@H]1O[C@@H](O[C@H]2C[C@@H](O)[C@]3(CO)[C@@H]4C(CC[C@]3(O)C2)[C@@]2(O)CC[C@H](C3=CC(=O)OC3)[C@@]2(C)C[C@H]4O)[C@H](O)[C@H](O)[C@H]1O` (stereo partly drawn), for which the half-maximal activity concentration (AC50) is 0.794 µM [falling, full curve, poor fit] in assay [1] and 17.8 µM [rising, partial curve, poor fit] in assay [5]. In addition, the max response in assay [5] (setting [8]) is 26.4% and 48.9%; in assay [5] (setting [9]), 31.9% and 48.7%.
As to `COc1ccc(-n2nc(C(F)(F)F)cc2-c2ccc(Cl)cc2)cc1`, the AC50 is 35.5 µM [rising, single point] in assay [1]; 84.9 µM [falling, single point] in assay [2] (setting [6]); 84.9 µM [falling, single point] in assay [2] (setting [7]).
